Consider one substance from publication PMC6427010.

Chains of the proteins cited; added tags and fusions are not shown. Residues count along the entry.
UniProt P30561, residues 10-848: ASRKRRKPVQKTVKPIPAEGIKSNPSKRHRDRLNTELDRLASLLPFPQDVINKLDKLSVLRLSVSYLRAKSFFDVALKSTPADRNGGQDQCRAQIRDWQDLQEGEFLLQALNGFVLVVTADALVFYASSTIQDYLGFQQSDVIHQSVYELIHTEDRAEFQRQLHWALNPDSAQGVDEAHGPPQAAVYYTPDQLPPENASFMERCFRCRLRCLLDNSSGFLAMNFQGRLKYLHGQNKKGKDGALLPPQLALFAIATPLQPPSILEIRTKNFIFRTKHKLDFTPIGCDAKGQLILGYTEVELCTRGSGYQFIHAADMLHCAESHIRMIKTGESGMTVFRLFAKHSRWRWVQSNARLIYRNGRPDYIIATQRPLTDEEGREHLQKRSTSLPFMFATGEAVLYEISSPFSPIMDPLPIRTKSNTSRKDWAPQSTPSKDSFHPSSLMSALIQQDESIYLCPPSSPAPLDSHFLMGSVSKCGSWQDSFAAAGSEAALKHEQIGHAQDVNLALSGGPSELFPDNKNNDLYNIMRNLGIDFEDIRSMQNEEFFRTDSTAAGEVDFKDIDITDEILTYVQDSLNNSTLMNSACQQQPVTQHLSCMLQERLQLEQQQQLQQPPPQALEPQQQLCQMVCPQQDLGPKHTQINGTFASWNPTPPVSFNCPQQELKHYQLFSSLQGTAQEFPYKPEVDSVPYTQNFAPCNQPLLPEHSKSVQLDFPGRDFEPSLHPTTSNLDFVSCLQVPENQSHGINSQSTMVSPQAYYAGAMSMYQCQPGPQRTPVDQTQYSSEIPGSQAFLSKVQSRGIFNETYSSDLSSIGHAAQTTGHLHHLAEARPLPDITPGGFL

In the assay the target is aryl hydrocarbon receptor (not stated (endogenous in pre-osteoclasts: mouse RAW264.7 cells or rat BMMs)) (UniProt P30561). Nature of the assay: co-IP; endogenous proteins of pre-osteoclasts, cells with or without tetrandrine or DIM; NP40 lysis buffer; immunoprecipitated with 1 ug of primary antibody against AhR or c-Cbl, protein A/G agarose, 4 h at 4 °C; beads washed three times with NP40 lysis buffer.

Results are given in words; binding and its absence hold for the method and conditions named. In cells and extracts the contact can be indirect. Some binding calls cover weakened binding; strength is not graded here.

With “E3 ubiquitin ligase c-Cbl (from UniProt P22682 1-913)”, the binding entry is “binds”.
